Here are results for one substance from paper PMC5763115, “Nesprin-2 Interacts with Condensin Component SMC2” (International Journal of Cell Biology, 2017).

These are yes or no findings as the source states them, for the method shown. Binding seen in cells or lysates may run through a third protein. Where a sequence is shown, tags or fusion partners need not be part of it.

In this assay the target is T1, GST-Nesprin-2-SMC (human) (UniProt Q8WXH0).
T1 sequence: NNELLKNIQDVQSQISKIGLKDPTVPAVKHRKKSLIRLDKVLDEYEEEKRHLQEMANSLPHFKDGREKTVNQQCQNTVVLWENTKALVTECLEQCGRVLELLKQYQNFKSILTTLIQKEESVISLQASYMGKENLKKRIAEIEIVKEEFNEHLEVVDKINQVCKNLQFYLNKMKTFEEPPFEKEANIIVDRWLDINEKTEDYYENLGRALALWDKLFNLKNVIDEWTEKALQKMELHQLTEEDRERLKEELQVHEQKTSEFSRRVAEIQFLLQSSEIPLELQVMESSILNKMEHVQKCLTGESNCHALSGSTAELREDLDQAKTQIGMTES
The assay is described as follows: pull-down; GST-Nesprin-2-SMC or GST on Glutathione-Sepharose 4B beads incubated overnight with HaCaT cell lysate (50 mM Tris-HCl pH 7.5, 150 mM NaCl, 1% Nonidet P-40, 0.5% sodium deoxycholate); western blot; unsynchronized cells, and for SMC2 also cells in G0/G1 and enriched for S and M phase (RO-3306 or thymidine/Nocodazole); only the target purified.

For the substance SMC1 (human (endogenous in HaCaT)), the binding entry is “no binding”.
